Measured values taken from PubChem BioAssay AID2685 (National Center for Advancing Translational Sciences (NCATS), 2010).
The list shows a part of the results. These are further read-outs of the screen, such as a control signal, another cell line or another target. No call is given for them. Compounds called inactive in the main read-out are mostly missing here. Words in brackets tell the shape of the fitted curve; partial curves, single points and poor fits give uncertain potencies.

Test: qHTS Assay for Lipid Storage Modulators in Drosophila S3 Cells;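 on cell number change: cells counted by Cell Tracker Red CMTPX staining in the red channel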
Conditions: BODIPY lipid droplet fluorescence, 18-24 h; for cell number change: measured here: cell count max response, cells fed with added oleic acid
How it was run: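 Drosophila S3 cells loaded with oleic acid (400 uM, as added) and compounds at several concentrations; lipid droplets imaged by 488-nm laser-scanning cytometry, 500–530 nm intensity and object ratio to cell channel. Percent activity normalized to 20 uM Triacsin C.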

[1] = measured here: cell number channel AC50, cells fed with added oleic acid
[2] = measured here: lipid fluorescence (Fed channel) AC50, cells fed with added oleic acid

Row | SMILES | cell number change [%] | AC50 [1] | AC50 [2]
1 | Cc1c(C(=O)NCC2COc3ccccc3O2)oc2ccc(S(=O)(=O)N(C)C3CCCCC3)cc12 (stereo not drawn) | 33.2 | 1.84 µM [rising, full curve] | 2.91 µM [rising, partial curve]
2 | CCOc1ccc(S(=O)(=O)NCCC(=O)N2CCCCCCC2)cc1 | -39 | 29.1 µM [falling, single point] | 29.1 µM [falling, single point]
3 | CCCCSCCCNC(=O)c1cn(CC)c2ccc(S(=O)(=O)N3CCOCC3)cc2c1=O | -0.806 | – | 0.0326 µM [falling, full curve, poor fit]
4 | C(#Cc1ccc2c(c1)COc1c3ccccc3nn1-2)c1ccccc1 | -21 | – | 18.4 µM [falling, single point]
5 | COc1ccc(NC(=O)CCN2CCCCCC2)c(OC)c1 | 61.1 | 29.1 µM [rising, single point] | 29.1 µM [rising, partial curve, poor fit]
6 | COc1ccc(-c2nc3cc([N+](=O)[O-])ccc3o2)cc1OC | -16.4 | 0.0651 µM [falling, full curve, poor fit] | 0.82 µM [falling, full curve, poor fit]
7 | O=C(c1ccc(-c2ccccc2)cc1)N1CCC(C(=O)N2CCCC2)CC1 | -4.52 | – | 16.4 µM [falling, partial curve, poor fit]
8 | O=S(=O)(c1ccc(OCC(O)CN2CCN(c3ccccc3O)CC2)cc1)N1CCOCC1 (stereo not drawn) | 8.61 | – | 5.8 µM [rising, partial curve]
9 | O=C(N/N=C/c1cccc([N+](=O)[O-])c1O)C(O)(c1ccccc1)c1ccccc1 | -16.2 | – | –
10 | Nc1ccc(S(=O)(=O)c2ccc(N)cc2)cc1 | 4.94 | – | 4.11 µM [rising, full curve, poor fit]
11 | CC1=CC(c2ccccc2)NC(=S)N1 (stereo not drawn) | 16.3 | 6.51 µM [rising, single point] | 1.16 µM [rising, single point]
12 | CCn1c(SCc2nc3ccccc3c(=O)[nH]2)nnc1-c1ccncc1 | – | 0.291 µM [rising, full curve] | 1.3 µM [rising, full curve]
13 | CCn1c(CSc2n[nH]c(N)n2)nc2cc(C(=O)O)ccc21 | -52 | 23.1 µM [falling, single point] | 20.6 µM [falling, single point]
14 | Nc1c2c(nc3ccc(Br)cc13)N(c1ccccc1)CC2 | -57.1 | 29.1 µM [falling, single point] | 0.651 µM [rising, single point]
15 | Cc1ccccc1-c1nnc(Cc2ccccc2)o1 | 33.1 | 10.3 µM [rising, single point] | 14.6 µM [rising, partial curve]
16 | COc1cccc(C(=O)Nc2ccc3c(c2)C(=O)NC3=O)c1 | -2.99 | – | 29.1 µM [rising, single point]
17 | Nc1ccc(N=Nc2ccccc2)c2ccccc12 | -69.4 | 6.51 µM [falling, full curve] | 5.17 µM [falling, full curve]
18 | N#C/C(=C\c1ccccc1)C(=O)N(c1ccccn1)C1CCCCC1 | -33.6 | 23.1 µM [falling, single point] | 10.3 µM [falling, partial curve]
19 | O=C(O)CCN1CCc2ccccc2C1c1cccs1 (stereo not drawn) | -5.71 | 2.59 µM [rising, partial curve] | –

Ordered by length of the SMILES (rising): three of the compounds above
Row | SMILES | cell number change [%] | AC50 [1] | AC50 [2]
14 | Nc1c2c(nc3ccc(Br)cc13)N(c1ccccc1)CC2 | -57.1 | 29.1 µM [falling, single point] | 0.651 µM [rising, single point]
2 | CCOc1ccc(S(=O)(=O)NCCC(=O)N2CCCCCCC2)cc1 | -39 | 29.1 µM [falling, single point] | 29.1 µM [falling, single point]
4 | C(#Cc1ccc2c(c1)COc1c3ccccc3nn1-2)c1ccccc1 | -21 | – | 18.4 µM [falling, single point]

Remaining list, next part.

Row | SMILES | cell number change [%] | AC50 [1] | AC50 [2]
20 | O=Cc1ccc(-c2ccc(F)cc2)o1 | -40.7 | 8.2 µM [falling, partial curve] | –
21 | CC(=O)Nc1ccc(OC(=O)c2cc3cc(Br)cc(Br)c3oc2=O)cc1 | -27.2 | 5.8 µM [falling, partial curve] | –
22 | COc1ccc2c(c1)c1c3n2CCN(C)C3=NCC1 | -12.7 | – | –
23 | COc1ccc(NC2C=CS(=O)(=O)C2)cc1 (stereo not drawn) | -5.78 | – | 1.84 µM [falling, full curve]
24 | Cc1ccsc1C(=O)N/N=C/c1ccc2c(c1)OCO2 | – | – | 5.17 µM [rising, partial curve]
25 | COc1ccc(C2CC(c3ccc(OC)c(OC)c3)=NN2C(=O)c2ccccc2)cc1 (stereo not drawn) | 31.5 | 0.731 µM [rising, full curve, poor fit] | –
26 | COc1ccc2nc(N/C(N)=N/C(=S)Nc3ccccc3)nc(C)c2c1 | -22.5 | – | 20.6 µM [falling, partial curve, poor fit]
27 | CCCCc1c(O)nc(N2CCN(Cc3ccccc3)CC2)[nH]c1=O | 72.9 | 10.3 µM [rising, partial curve] | 6.51 µM [rising, single point]
28 | CCNS(=O)(=O)c1ccc(Br)c(OC)c1 | – | – | 6.51 µM [falling, single point]
29 | O=C(CCN1C(=O)C2C3C=CC(C3)C2C1=O)N1CCCCC1 (stereo not drawn) | -4.07 | – | 0.326 µM [falling, full curve]
30 | NS(=O)(=O)c1cccc(NC(=O)CN2CCCc3ccccc32)c1 | 36.8 | – | 29.1 µM [rising, single point]
31 | CN1CCC(N(C)C(=O)Cc2ccccc2[N+](=O)[O-])CC1 | 11.7 | – | –
32 | OCCC1CN(Cc2ccc3nsnc3c2)CCN1CCc1ccccc1 (stereo not drawn) | 9.76 | – | 20.6 µM [rising, single point]
33 | CCN(CC)C(=O)CSc1nnc(-c2cnccn2)n1-c1ccccc1 | -20.4 | – | 0.731 µM [falling, partial curve, poor fit]
34 | N#CCCc1cccc(CCC#N)c1 | 13.3 | – | 6.51 µM [rising, single point]
35 | Cc1nnc(NCCN2CCOCC2)[nH]c1=O | -120 | 18.4 µM [falling, single point] | 16.4 µM [falling, partial curve]
36 | Nc1c(C(=O)N/N=C/c2ccc(OCc3ccccc3)cc2)cnn1-c1ccccc1 | -42.1 | 29.1 µM [falling, single point] | 1.84 µM [falling, partial curve, poor fit]
37 | COC(=O)C1=C(C)N(C)C(=S)NC1c1ccc(Cl)cc1 (stereo not drawn) | 3.67 | – | 5.8 µM [rising, single point]
38 | Oc1cccc(Nc2nc(O)c(/C=C3\C=Nc4ccccc43)s2)c1 | -1.08 | – | 32.6 µM [falling, single point]

Row | SMILES | cell number change [%] | AC50 [1] | AC50 [2]
39 | Brc1ccc(Nc2nc3ccccc3n3nnnc23)cc1 | 53.2 | 4.11 µM [rising, partial curve] | 3.66 µM [rising, single point]
40 | Cn1nc(C(F)(F)F)c2cc(NC(=O)OCC(C)(C)C)sc21 | -23.3 | – | 18.4 µM [falling, single point]
41 | COc1ccc(/C=N/Nc2nonc2N)c(OC)c1 | 32.6 | 18.4 µM [rising, single point] | 0.146 µM [rising, full curve]
42 | O=C(CSCc1ccc(Cl)cc1)Nc1ccc(O)cc1C(=O)O | 35.1 | 2.31 µM [rising, partial curve, poor fit] | –
43 | CC1CN(C(=O)C2CCCN2S(=O)(=O)c2ccc(Cl)cc2)CC(C)O1 (stereo not drawn) | 9.07 | – | 3.66 µM [falling, partial curve, poor fit]
44 | O=C(O)CC1NC(=S)N(c2ccccc2)C1=O (stereo not drawn) | -109 | 9.2 µM [falling, partial curve] | 0.651 µM [falling, single point]
45 | C[C@H](NC(=O)c1[nH]cnc1C(=O)Nc1ccon1)c1ccccc1 | 14.6 | – | 0.116 µM [rising, full curve, poor fit]
46 | C=CCOc1c(Cl)cc(CNCCCN2CCOCC2)cc1OC | 19.1 | – | 0.58 µM [rising, single point]
47 | CC1C(=O)N2CCCc3cc(NC(=O)C(=O)NCc4cccnc4)cc1c32 (stereo not drawn) | 48.5 | 6.51 µM [rising, partial curve, poor fit] | –
48 | Cc1ccc(CCNC(=O)C2CCN(C(=O)c3sccc3-n3cccc3)CC2)cc1 | 10.5 | – | 0.103 µM [falling, full curve, poor fit]
49 | CC(=O)N1CCN(C(=O)c2ccco2)CC1 | 18.1 | – | –
50 | O=C(Nc1ccccc1)NN(C(=O)CCl)c1ccccc1 | 22.2 | – | 18.4 µM [falling, partial curve, poor fit]
51 | CCC(C)C(NC(=O)c1ccccc1NC(=O)c1ccccc1)C(=O)N1CCOCC1 (stereo not drawn) | -23.1 | – | –
52 | C=CCn1cc(C(=O)NCc2cccnc2)c(=O)c2cc(S(=O)(=O)N(CC)CC)ccc21 | 8.57 | 0.00461 µM [rising, full curve] | 0.058 µM [rising, full curve]
53 | OCCN1CCN(CCCN2c3ccccc3Sc3ccc(Cl)cc32)CC1 | -4.38 | – | 6.51 µM [falling, full curve, poor fit]
54 | CCOC(=O)/C=C/C(=O)Nc1nccs1 | 26.5 | – | –
55 | Cc1ccc(-n2ncc3c(N4CCN(c5ccc(F)cc5)CC4)ncnc32)c(C)c1 | – | 0.651 µM [rising, full curve] | –
56 | CCOC(=O)c1c(NC(=O)Cc2cccs2)sc(C(=O)N2CCCCC2)c1C | -34.9 | 16.4 µM [falling, partial curve] | 0.651 µM [rising, partial curve]
57 | NS(=O)(=O)c1ccc(CCNC(=O)COC(=O)c2nc(Cl)ccc2Cl)cc1 | 27.2 | – | 1.84 µM [falling, partial curve, poor fit]
